Values quoted from earlier work, collected in patent US12648892B2, “Emergency eye wash” (Lebrun Labs LLC, priority 2024, dated 2026).

Tested on: eye
Conditions: eye damage classification; cited from earlier work
Further: key: GHS Category 1 (Chemicals that cause extreme and irreversible damage to the eye).

## CC(C)(C)c1ccc(O)cc1 [compound 19]
  in vivo GHS: 1
